Assay results as given in the supplement of paper PMC8728848.
Some of the results follow.

Key:
Assay in all cases: glycan array binding signal (z-score within array); higher = stronger binding
Conditions in all cases: glycan notation: IUPAC condensed, linker removed
[1] = molecular target: Neu5Ac(a2-6)Gal(b1-4)GlcNAc(b1-2)Man(a1-3)[Man(a1-6)]Man(b1-4)GlcNAc(b1-4)GlcNAc
Outline: (§1)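 Glycan array binding is given as a within-array Z-score, which can be read as non-binding when negative. The arrays, 3228 of them, came from the Consortium for Functional Glycomics database and were retained only where the protein sequence was available. Z-scores were averaged across arrays of the same protein sequence at different concentrations or buffers and across linkers.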

[2] = molecular target: Neu5Ac(a2-6)Gal(b1-4)GlcNAc(b1-2)Man(a1-3)[Neu5Ac(a2-3)Gal(b1-4)GlcNAc(b1-2)Man(a1-6)]Man(b1-4)GlcNAc(b1-4)GlcNAc
Outline: as §1

[3] = molecular target: Neu5Ac(a2-6)Gal(b1-4)GlcNAc(b1-2)Man(a1-3)[Neu5Ac(a2-6)Gal(b1-4)GlcNAc(b1-2)Man(a1-6)]Man(b1-4)GlcNAc(b1-4)GlcNAc
Outline: as §1

[4] = molecular target: Neu5Ac(a2-6)Gal(b1-4)GlcNAc(b1-2)Man(a1-3)[Neu5Ac(a2-6)Gal(b1-4)GlcNAc(b1-2)Man(a1-6)]Man(b1-4)GlcNAc(b1-4)[Fuc(a1-6)]GlcNAc
Outline: as §1

[5] = molecular target: Neu5Ac(a2-6)Gal(b1-4)GlcNAc(b1-2)Man(a1-6)Man(b1-4)GlcNAc(b1-4)GlcNAc
Outline: as §1

[6] = molecular target: Neu5Ac(a2-6)Gal(b1-4)GlcNAc(b1-2)Man(a1-6)[Gal(b1-4)GlcNAc(b1-2)Man(a1-3)]Man(b1-4)GlcNAc(b1-4)GlcNAc
Outline: as §1

[7] = molecular target: Neu5Ac(a2-6)Gal(b1-4)GlcNAc(b1-2)Man(a1-6)[GlcNAc(b1-2)Man(a1-3)]Man(b1-4)GlcNAc(b1-4)GlcNAc
Outline: as §1

[8] = molecular target: Neu5Ac(a2-6)Gal(b1-4)GlcNAc(b1-2)Man(a1-6)[Man(a1-3)]Man(b1-4)GlcNAc(b1-4)GlcNAc
Outline: as §1

[9] = molecular target: Neu5Ac(a2-6)Gal(b1-4)GlcNAc(b1-2)[Neu5Ac(a2-6)Gal(b1-4)GlcNAc(b1-4)]Man(a1-3)[GlcNAc(b1-4)][Neu5Ac(a2-6)Gal(b1-4)GlcNAc(b1-2)[Neu5Ac(a2-6)Gal(b1-4)GlcNAc(b1-6)]Man(a1-6)]Man(b1-4)GlcNAc(b1-4)GlcNAc
Outline: as §1

[10] = molecular target: Neu5Ac(a2-6)Gal(b1-4)GlcNAc(b1-2)[Neu5Ac(a2-6)Gal(b1-4)GlcNAc(b1-4)]Man(a1-3)[GlcNAc(b1-4)][Neu5Ac(a2-6)Gal(b1-4)GlcNAc(b1-4)Man(a1-6)]Man(b1-4)GlcNAc(b1-4)GlcNAc
Outline: as §1

[11] = molecular target: Neu5Ac(a2-6)Gal(b1-4)GlcNAc(b1-2)[Neu5Ac(a2-6)Gal(b1-4)GlcNAc(b1-6)]Man(a1-6)[Neu5Ac(a2-6)Gal(b1-4)GlcNAc(b1-2)Man(a1-3)][GlcNAc(b1-4)]Man(b1-4)GlcNAc(b1-4)GlcNAc
Outline: as §1

[12] = molecular target: Neu5Ac(a2-6)Gal(b1-4)GlcNAc(b1-3)Gal(b1-3)GlcNAc
Outline: as §1

[13] = molecular target: Neu5Ac(a2-6)Gal(b1-4)GlcNAc(b1-3)Gal(b1-4)GlcNAc
Outline: as §1

[14] = molecular target: Neu5Ac(a2-6)Gal(b1-4)GlcNAc(b1-3)Gal(b1-4)GlcNAc(b1-2)Man(a1-3)[Neu5Ac(a2-6)Gal(b1-4)GlcNAc(b1-3)Gal(b1-4)GlcNAc(b1-2)Man(a1-6)]GalNAc
Outline: as §1

[15] = molecular target: Neu5Ac(a2-6)Gal(b1-4)GlcNAc(b1-3)Gal(b1-4)GlcNAc(b1-3)Gal(b1-4)GlcNAc
Outline: as §1

[16] = molecular target: Neu5Ac(a2-6)Gal(b1-4)GlcNAc(b1-3)Gal(b1-4)GlcNAc(b1-3)Gal(b1-4)GlcNAc(b1-2)Man(a1-3)[Neu5Ac(a2-6)Gal(b1-4)GlcNAc(b1-3)Gal(b1-4)GlcNAc(b1-3)Gal(b1-4)GlcNAc(b1-2)Man(a1-6)]GalNAc
Outline: as §1

[17] = molecular target: Neu5Ac(a2-6)Gal(b1-4)GlcNAc(b1-3)Gal(b1-4)GlcNAc(b1-3)GalNAc
Outline: as §1

[18] = molecular target: Neu5Ac(a2-6)Gal(b1-4)GlcNAc(b1-3)Gal(b1-4)GlcNAc(b1-3)[Neu5Ac(a2-6)Gal(b1-4)GlcNAc(b1-3)Gal(b1-4)GlcNAc(b1-6)]GalNAc
Outline: as §1

[19] = molecular target: Neu5Ac(a2-6)Gal(b1-4)GlcNAc(b1-3)Gal(b1-4)GlcNAc(b1-6)[Gal(b1-3)]GalNAc
Outline: as §1

[20] = molecular target: Neu5Ac(a2-6)Gal(b1-4)GlcNAc(b1-3)Gal(b1-4)[Fuc(a1-3)]GlcNAc(b1-3)Gal(b1-4)[Fuc(a1-3)]GlcNAc
Outline: as §1

[21] = molecular target: Neu5Ac(a2-6)Gal(b1-4)GlcNAc(b1-3)GalNAc
Outline: as §1

[22] = molecular target: Neu5Ac(a2-6)Gal(b1-4)GlcNAc(b1-3)[Neu5Ac(a2-6)Gal(b1-4)GlcNAc(b1-6)]GalNAc
Outline: as §1

[23] = molecular target: Neu5Ac(a2-6)Gal(b1-4)GlcNAc(b1-6)GalNAc
Outline: as §1

[24] = molecular target: Neu5Ac(a2-6)Gal(b1-4)GlcNAc(b1-6)[Gal(b1-3)GlcNAc(b1-3)]Gal(b1-4)Glc
Outline: as §1

[25] = molecular target: Neu5Ac(a2-6)Gal(b1-4)GlcNAc(b1-6)[Gal(b1-3)]GalNAc
Outline: as §1

[26] = molecular target: Neu5Ac(a2-6)Gal(b1-4)GlcNAc6S
Outline: as §1

Neu5Ac(a2-6)GalNAc = molecular target: Neu5Ac(a2-6)GalNAc
Outline: as §1

[27] = molecular target: Neu5Ac(a2-6)GalNAc(b1-4)GlcNAc
Outline: as §1

[28] = molecular target: Neu5Ac(a2-6)GalNAc(b1-4)GlcNAc6S
Outline: as §1

[29] = molecular target: Neu5Ac(a2-6)GlcNAc(b1-4)GlcNAc
Outline: as §1

[30] = molecular target: Neu5Ac(a2-6)GlcNAc(b1-4)GlcNAc(b1-4)GlcNAc
Outline: as §1

B1: TAL6-4LysM (Trichoderma atroviride) (protein)
chain: AADSIPSISPTGIITPTPTQSGMVSNCNKFYDVHSNDGCSAIASSQHVDLSSLYKWNPAIKTDCSGLQASVYVCIGILTTSMSTTSKLPTTTSKPSTTSKPPTGITTPTPTQSGMVKNCNKFYDVHSGDGCSAIASSQKVNLSSFYLWNPAVKTDCSGLQASVFVCIGTLTTSMSTTTSKLPTTTSKPSTTSKPPTGIITPTPTQNGMVKNCNKFYDVHSGDGCSAIASSQKVNLSSFYLWNPAVKTDCSGLQASVFVCVGTATTTTAAGITTPTPTQSGMVSGCNKFYDVHAGDGCSAIASSQKIALSSLYKWNPAVKTDCSGLQASVYICIGVGNAAAARVTGALEQKLISEEDLNSAVDHHHHHH
Q: B1 was tested. Which “glycan array binding signal (z-score)” value [1] did it give?
A: -1.28

Q: And the “glycan array binding signal (z-score)” value [2]?
A: 0.793

Q: What about the “glycan array binding signal (z-score)” value [3] of the same binder?
A: -0.408

Q: And the “glycan array binding signal (z-score)” value [4]?
A: 0.573

Q: And the “glycan array binding signal (z-score)” value [5]?
A: -1.04

Q: What about the “glycan array binding signal (z-score)” value [6] of the same binder?
A: 0.656

Q: And the “glycan array binding signal (z-score)” value [7]?
A: -0.839

Q: And the “glycan array binding signal (z-score)” value [8]?
A: -0.594

Q: And the “glycan array binding signal (z-score)” value [9]?
A: 0.213

Q: And the “glycan array binding signal (z-score)” value [10]?
A: -1.62

Q: What about the “glycan array binding signal (z-score)” value [11] of the same binder?
A: -0.279

Q: What about the “glycan array binding signal (z-score)” value [12] of the same binder?
A: 0.252

Q: And the “glycan array binding signal (z-score)” value [13]?
A: -0.421

Q: And the “glycan array binding signal (z-score)” value [14]?
A: -1.39

Q: And the “glycan array binding signal (z-score)” value [15]?
A: -1.09

Q: And the “glycan array binding signal (z-score)” value [16]?
A: -0.881

Q: And the “glycan array binding signal (z-score)” value [17]?
A: 3.9

Q: And the “glycan array binding signal (z-score)” value [18]?
A: 1.4

Q: What about the “glycan array binding signal (z-score)” value [19] of the same binder?
A: 1.64

Q: And the “glycan array binding signal (z-score)” value [20]?
A: -1.23

Q: And the “glycan array binding signal (z-score)” value [21]?
A: 1.35

Q: What about the “glycan array binding signal (z-score)” value [22] of the same binder?
A: 0.082

Q: And the “glycan array binding signal (z-score)” value [23]?
A: -0.71

Q: And the “glycan array binding signal (z-score)” value [24]?
A: -1.09

Q: What about the “glycan array binding signal (z-score)” value [25] of the same binder?
A: -1.19

Q: And the “glycan array binding signal (z-score)” value [26]?
A: 1.36

Q: What about the “glycan array binding signal (z-score)” value (Neu5Ac(a2-6)GalNAc) of the same binder?
A: 0.18

Q: And the “glycan array binding signal (z-score)” value [27]?
A: 0.779

Q: What about the “glycan array binding signal (z-score)” value [28] of the same binder?
A: 0.79

Q: And the “glycan array binding signal (z-score)” value [29]?
A: 0.492

Q: What about the “glycan array binding signal (z-score)” value [30] of the same binder?
A: -0.723
